Measured values taken from patent US20230180754A1, “HETEROCYCLIC COMPOUNDS FOR THE CONTROL OF INVERTEBRATE PESTS” (priority 2020, published 2023).
Some of these results come from one statement about several compounds together. At least one structure is not confirmed: it was looked up by name or label, or the drawing left a doubt.

Key:
Assay type in all cases: in vivo
[1] = test system: southern armyworm (Spodoptera eridania), 2nd instar larvae; experiment: Southern armyworm (Spodoptera eridania), 2nd instar larvae, sprayed lima bean plants; conditions: 300 ppm, 4 days after treatment
Description: The active compounds were formulated by a Tecan liquid handler in 100% cyclohexanone as a 10′000 ppm solution supplied in tubes. The 10′000 ppm solution was serially diluted in 100% cyclohexanone to make interim solutions. These served as stock solutions for which final dilutions were made by the Tecan in 50% acetone:50% water (v/v) into 10 or 20m1 glass vials. A nonionic surfactant (Kinetic®) was included in the solution at a volume of 0.01% (v/v). The vials were then inserted into an automated electrostatic sprayer equipped with an atomizing nozzle for application to plants/insects. Lima bean plants (variety Sieva) were grown 2 plants to a pot and selected for treatment at the 1st true leaf stage. Test solutions were sprayed onto the foliage by an automated electrostatic plant sprayer equipped with an atomizing spray nozzle. The plants were dried in the sprayer fume hood and then removed from the sprayer. Each pot was placed into perforated plastic bags with a zip closure. Ten to 11 armyworm larvae were placed into the bag and the bags zipped closed. Test plants were maintained in a growth room at about 25° C. and about 20-40% relative humidity for 4 days, avoiding direct exposure to fluorescent light (14:10 light:dark photo-period) to prevent trapping of heat inside the bags. Mortality and reduced feeding were assessed 4 days after treatment, compared to untreated control plants.

[2] = test system: yellow fever mosquito (Aedes aegypti); conditions: 2500 ppm; larval mortality after 2 days
Description: For evaluating control of yellow fever mosquito (Aedes aegypti) the test unit consisted of 96-well-microtiter plates containing 200 μl of tap water per well and 5-15 freshly hatched A. aegypti larvae.
The active compounds were formulated using a solution containing 75% (v/v) water and 25% (v/v) DMSO. Different concentrations of formulated compounds or mixtures were sprayed onto the insect diet at 2.5 μl, using a custom-built micro atomizer, at two replications.
After application, microtiter plates were incubated at 28±1° C., 80±5% RH for 2 days. Larval mortality was then visually assessed.

[3] = test system: boll weevil (Anthonomus grandis); experiment: Boll weevil (Anthonomus grandis), microtiter plate insect diet test; conditions: 2500 ppm; egg and larval mortality after 5 days
Description: (§1) For evaluating control of boll weevil (Anthonomus grandis) the test unit consisted of 96-well-microtiter plates containing an insect diet and 5-10 A. grandis eggs. The compounds were formulated using a solution containing 75% v/v water and 25% v/v DMSO. Different concentrations of formulated compounds were sprayed onto the insect diet at 5 μl, using a custom-built micro atomizer, at two replications.
After application, microtiter plates were incubated at about 25±1° C. and about 75±5% relative humidity for 5 days. Egg and larval mortality was then visually assessed.

[4] = test system: tobacco budworm (Heliothis virescens); experiment: Tobacco budworm (Heliothis virescens), microtiter plate insect diet test; conditions: 2500 ppm; egg and larval mortality after 5 days
Description: as §1, with “of tobacco budworm (Heliothis virescens)” for “of boll weevil (Anthonomus grandis)”, “and 15-25 H. virescens” for “and 5-10 A. grandis”, “at 10” for “at 5”
After application, microtiter plates were incubated at about 28±1° C. and about 80±5% relative humidity for 5 days. Egg and larval mortality was then visually assessed.

[5] = test system: green soldier stink bug (Nezara viridula); experiment: Green soldier stink bug (Nezara viridula), soybean pod spray test; conditions: 300 ppm; after 5 days; late 3rd instar
[6] = test system: orchid thrips (Dichromothrips corbetti); experiment: Orchid thrips (Dichromothrips corbetti), floral-immersion technique; conditions: 300 ppm; 72 hours after treatment; adult thrips
Description: Dichromothrips corbetti adults used for bioassay were obtained from a colony maintained continuously under laboratory conditions. For testing purposes, the test compound was diluted in a 1:1 mixture of acetone:water (vol:vol), plus Kinetic at a rate of 0.01% v/v.
Thrips potency of each compound was evaluated by using a floral-immersion technique. Each orchid petal was dipped into treatment solution and allowed to dry in Petri dishes. Treated petals were placed into individual re-sealable plastic along with about 20 adult thrips. All test arenas were held under dark condition and a temperature of about 28° C. for duration of the assay. The percent mortality was recorded 72 hours after treatment.

[7] = test system: diamond back moth (Plutella xylostella); experiment: Diamond back moth (Plutella xylostella), cabbage leaf disc dip test; conditions: 300 ppm; 72 hours after treatment; 3rd instar larvae
Description: The active compound was dissolved at the desired concentration in a mixture of 1:1 (vol:vol) distilled water:acetone. Surfactant (Kinetic) was added at a rate of 0.01% (vol/vol). The test solution was prepared at the day of use. Cabbage leaf discs (60 mm in diameter) were dipped in test solution and air-dried. Treated leaves were placed in petri dishes lined with moistened filter paper and inoculated with ten 3rd instar larvae. Mortality was recorded 72 hours after treatment. Feeding damages were also recorded using a scale of 0-100%.

[8] = test system: green peach aphid (Myzus persicae); experiment: Green peach aphid (Myzus persicae), systemic artificial diet/membrane test; conditions: 2500 ppm; aphid mortality after 3 days
Description: For evaluating control of green peach aphid (Myzus persicae) through systemic means the test unit consisted of 96-well-microtiter plates containing liquid artificial diet under an artificial membrane.
The compounds were formulated using a solution containing 75% v/v water and 25% v/v DMSO. Different concentrations of formulated compounds were pipetted into the aphid diet, using a custom-built pipette, at two replications.
After application, 5-8 adult aphids were placed on the artificial membrane inside the microtiter plate wells. The aphids were then allowed to suck on the treated aphid diet and incubated at about 23 ±1° C. and about 50 ±5% relative humidity for 3 days. Aphid mortality and fecundity was then visually assessed.

[9] = test system: cowpea aphid (Aphis craccivora); experiment: Cowpea aphid (Aphis craccivora), spray on potted cowpea plants; conditions: 300 ppm; after 72 hours

Measured: mortality in comparison with untreated controls

CC(Nc1ncc2c(Br)cc(C(F)(F)F)cn12)c1ncnn1-c1ncccn1 (stereo not shown) [I-26]
at least 50%: [1] | [2] | [3] | [4]

CC(Nc1nn(C)c2c(Cl)cc(Cl)cc12)c1ncnn1-c1ncccn1 (stereo not shown) [I-16]
at least 50%: [1] | [2] | [3]

CC(Nc1noc2c(C(F)(F)F)cc(C(F)(F)F)cc12)c1ncnn1-c1cnc(Br)cn1 (stereo not shown) [I-24]
at least 50%: [1] | [2] | [3]

CC(Nc1noc2c(C(F)(F)F)cc(C(F)(F)F)cc12)c1ncnn1-c1ncc(Br)cn1 (stereo not shown) [I-17]
at least 50%: [5] | [6] | [1] | [2] | [7] | [3] | [4]

CC(Nc1noc2c(C(F)(F)F)cc(C(F)(F)F)cc12)c1ncnn1-c1ncc(C(N)=O)cn1 (stereo not shown) [I-32]
at least 50%: [2] | [3] | [4]

C[C@H](Nc1noc2ccc(C(F)(F)F)cc12)c1ncnn1-c1ncccn1 [I-15]
at least 50%: [5] | [2] | [8] | [7] | [3] | [4] | [9]

CC(Nc1noc2c(Br)cncc12)c1ncnn1-c1ncccn1 (stereo not shown) [I-19]
at least 50%: [8] | [3]

CC(Nc1noc2c(C(F)(F)F)cc(C(F)(F)F)cc12)c1ncnn1-c1ccc(C(F)(F)F)cn1 (stereo not shown) [I-22]
at least 50%: [1] | [2] | [7] | [3] | [4]

CC(Nc1noc2c(C(F)(F)F)cccc12)c1ncnn1-c1ncccn1 (stereo not shown) [I-10]
at least 50%: [2] | [8] | [7] | [3] | [4]

CC(Nc1noc2c(C(F)(F)F)cc(C(F)(F)F)cc12)c1ncnn1-c1nccc(C(F)(F)F)n1 (stereo not shown) [I-25]
at least 50%: [1] | [2] | [8] | [7] | [3] | [4]

CC(Nc1noc2c(C(F)(F)F)cc(C(F)(F)F)cc12)c1ncnn1-c1ncc(C(F)(F)F)cn1 (stereo not shown) [I-21]
at least 50%: [3] | [4]

COC(=O)N(c1noc2c(C(F)(F)F)cc(C(F)(F)F)cc12)C(C)c1ncnn1-c1ncccn1 (stereo not shown) [I-36]
at least 50%: [6] | [1] | [2] | [8] | [7] | [3] | [4] | [9]

CC(Nc1noc2c(C(F)(F)F)cc(C(F)(F)F)cc12)c1ncnn1-c1ncc(F)cc1F (stereo not shown) [I-30]
at least 50%: [1] | [2] | [7] | [3] | [4]

COC(=O)N(Cc1ncnn1-c1ncccn1)c1noc2c(C(F)(F)F)cc(C(F)(F)F)cc12 [I-35]
at least 50%: [2] | [7]

CC(Nc1noc2c(C(F)(F)F)cc(C(F)(F)F)cc12)c1ncnn1-c1ncc(C#N)cn1 (stereo not shown) [I-34]
at least 50%: [1] | [7] | [3] | [4]

CC(Nc1noc2c(C(F)(F)F)cc(C(F)(F)F)cc12)c1ncnn1-c1cccnn1 (stereo not shown) [I-29]
at least 50%: [7] | [3] | [4]

CC(Nc1noc2c(C(F)(F)F)cc(C(F)(F)F)cc12)c1ncnn1-c1ncc(OC(F)F)cn1 (stereo not shown) [I-33]
at least 50%: [1] | [2] | [7] | [3] | [4]

CC(Nc1noc2c(C(F)(F)F)cc(C(F)(F)F)cc12)c1ncnn1-c1ccc(Cl)nn1 (stereo not shown) [I-27]
at least 50%: [2] | [3] | [9]

CC(Nc1noc2c(C(F)(F)F)cc(C(F)(F)F)cc12)c1ncnn1-c1cnccn1 (stereo not shown) [I-23]
at least 50%: [1] | [2] | [7] | [3] | [4]

CCOC(=O)c1cnc(-n2ncnc2C(C)Nc2noc3c(C(F)(F)F)cc(C(F)(F)F)cc23)nc1 (stereo not shown) [I-31]
at least 50%: [7] | [3] | [4]
